Results are given in words; binding and its absence hold for the method and conditions named. Some entries that bind do so weakly or less than the wild type.
Biological target: T1, human TREX1(1-242) wild-type protomer (human) (UniProt Q9NSU2)
T1 sequence: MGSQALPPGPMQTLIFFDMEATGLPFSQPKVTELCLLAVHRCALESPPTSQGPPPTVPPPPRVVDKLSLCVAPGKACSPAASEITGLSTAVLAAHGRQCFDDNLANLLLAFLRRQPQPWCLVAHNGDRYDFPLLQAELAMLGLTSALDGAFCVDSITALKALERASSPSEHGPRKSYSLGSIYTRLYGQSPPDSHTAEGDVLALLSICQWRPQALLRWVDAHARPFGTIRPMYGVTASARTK
Assay: sequential affinity co-purification

- binding: binds
B1: human TREX1(1-242) D18N mutant protomer (enzyme, UniProt Q9NSU2-3 1-242)
chain: MGSQALPPGPMQTLIFFNMEATGLPFSQPKVTELCLLAVHRCALESPPTSQGPPPTVPPPPRVVDKLSLCVAPGKACSPAASEITGLSTAVLAAHGRQCFDDNLANLLLAFLRRQPQPWCLVAHNGDRYDFPLLQAELAMLGLTSALDGAFCVDSITALKALERASSPSEHGPRKSYSLGSIYTRLYGQSPPDSHTAEGDVLALLSICQWRPQALLRWVDAHARPFGTIRPMYGVTASARTK

— paper doi:10.1101/2022.02.25.481063
